In PubChem BioAssay AID504467 (National Center for Advancing Translational Sciences (NCATS), 2011):
The campaign covered roughly 330,000 compounds. About 7,700 (2.3%) were called active. The inconclusive results got no clear call from the source; some entries with a clear call stand among them for comparison. Calls follow the shape of the dose curve; as a rule, active = well fitted inhibition curve with a large enough effect; inconclusive = small, poorly fitted or top-dose-only effect, or effect the other way; inactive = flat fitted curve, though single readings scatter. Potencies of inconclusive entries are doubtful fits and often do not repeat.
% is scaled to controls: 0 for no effect and ±100 for the full control effect; potency is read from the fitted curve at half-maximal effect.

Assay: qHTS screen for small molecules that inhibit ELG1-dependent DNA repair in human embryonic kidney (HEK293T) cells expressing luciferase-tagged ELG1; also: nearly all actives have a fitted effect of over 55% in size
Details: HEK293T ELG1-luciferase reporter, luminescence, 16 h, DNA damage induced by 5-fluorouridine; activity change, negative = inhibition: at 46.1 µM (top of the series)
In short: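 Cells (2,000 per well) received 5-fluorouridine plus test compound or DMSO and were incubated 16 hr at 37 °C, 5% CO2. Luciferase activity was read by luminescence 30 min after ONE-Glo addition; signal suppression marked inhibition of damage-induced ELG1 function.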
For `Cc1ccc(-c2ccc(C#N)c(=O)n2CC(=O)N(C)C)cc1`, the Potency was “inactive”.
With `CSc1ccccc1OCc1cc(C(=O)NCCn2nc(C)cc2C)no1` the Potency was inconclusive: 25.9 µM [inhibitor, single point].
With `O=C(Cn1ccccc1=O)NCc1ccc(F)cc1` the Potency was inconclusive: 18.3 µM [activator, partial curve, poor fit].
For `COc1ccc(OC)c(C2C(C(N)=O)=C(C)Nc3nc(-c4cccc(Cl)c4)nn32)c1` (configuration not stated), the Potency was inconclusive: 11.6 µM [activator, partial curve].
For `COc1ccc(/C=C/c2nc3ccccc3n2Cc2ccc(OC)c(OC)c2)cc1`, the Potency was inconclusive: 1.64 µM [activator, partial curve].
With `Cc1ccccc1N=C1NC(=O)/C(=C/c2cccn2C)S1` the Potency was inconclusive: 29.1 µM [inhibitor, single point].
For `CC(NC(=O)Nc1ccc(Cl)cc1)C1CCCO1` (configuration not stated), the Potency was inconclusive: 18.3 µM [activator, single point].
With `Cc1ccccc1-n1c(Cc2cccs2)n[nH]c1=S` the Potency was “inactive”.
For `NC1=NC(=O)/C(=C/c2cc(Br)c(O)c(Br)c2)S1`, the activity change, negative = inhibition was inconclusive: 2.09% [activator].
For `Cc1cc(C=O)c(C)n1-c1ccc(Oc2ccc([N+](=O)[O-])cn2)cc1`, the Potency was inconclusive: 29.1 µM [inhibitor, single point].
For `Cc1nc(NC(=O)CSc2nc3cccnc3n2C2CCCCC2)sc1C`, the Potency was inconclusive: 25.9 µM [activator, single point].
In the case of `COc1ccc(NC(=O)C2CC(c3cccc(Br)c3)=NO2)cc1OC` (configuration not stated), the Potency is reported as inconclusive: 29.1 µM [inhibitor, single point].
For `O=C(c1ccco1)N1CCN(Cc2cc(=O)c(OCc3ccc(F)cc3)co2)CC1`, the Potency was “inactive”.
For `O=C(c1ccc2c(=O)n3c(nc2c1)CCCCC3)N1CCN(c2ccc(F)cc2)CC1`, the Potency was inconclusive: 23.1 µM [inhibitor, single point].
For `O=C(c1ccc(Br)o1)N1CCc2ccccc21`, the Potency was inconclusive: 9.2 µM [activator, partial curve].
For `CC(=O)c1ccc(NC(=S)N2CCCC(C(F)(F)F)C2)cc1` (configuration not stated), the Potency was “inactive”.
For `O=C(Oc1cccc(C(=S)N2CCCCC2)c1)c1ccccc1`, the Potency was “inactive”.
In the case of `Cc1ccc2c(c1)N(CC(=O)NCC1CCCO1)C(=O)C(C(C)C)O2` (configuration not stated), the Potency is reported as “inactive”.
For `NC(=O)c1c(NC(=O)c2cccc(N3C(=O)CCC3=O)c2)sc2c1CCCCC2`, the Potency was inconclusive: 4.61 µM [activator, partial curve, poor fit].
With `O=c1cc(NCc2ccccc2)c2ccccc2o1` the Potency was inconclusive: 29.1 µM [inhibitor, partial curve, poor fit].
With `O=C(NCCc1ccccn1)c1ccc(COc2ccccc2)o1` the Potency was inconclusive: 10.3 µM [activator, partial curve].
With `NS(=O)(=O)c1ccc(CCNC(=O)C(c2ccccc2)c2ccccc2)cc1` the Potency was “inactive”.
In the case of `CCOC(=O)c1sc(Nc2ccccc2Cl)nc1C`, the Potency is reported as inconclusive: 14.6 µM [activator, partial curve].
For `COc1ccc(NC(=S)N(CCc2nc3cc(C)c(C)cc3[nH]2)Cc2cccnc2)cc1`, the Potency was active: 16.4 µM.
With `CCn1cc(C(=O)NCc2ccc(Cl)cc2)c(=O)c2cc(S(=O)(=O)N(C)C)ccc21` the Potency was inconclusive: 9.2 µM [inhibitor, partial curve, poor fit].
With `O=C(N/N=C/c1cn(-c2ccccc2)nc1-c1cccs1)c1ccc(Cl)cc1` the Potency was inconclusive: 23.1 µM [inhibitor, single point].
In the case of `O=C(COc1ccc(Br)cc1)NC1CC1`, the Potency is reported as inconclusive: 8.2 µM [activator, partial curve, poor fit].
In the case of `CCN1CCN(S(=O)(=O)c2ccc(Cl)c(C(=O)NCCOc3ccc(C)cc3)c2)CC1`, the Potency is reported as inconclusive: 20.6 µM [inhibitor, partial curve, poor fit].
With `COc1ccc(NC(=O)C2CCN(c3ncnc4c3nc3n4CCCCC3)CC2)cc1Cl` the Potency was active: 1.83 µM.
With `CCC(=O)Nc1ccc(Cl)c(NC(=O)c2ccc([N+](=O)[O-])cc2)c1` the Potency was inconclusive: 23.1 µM [inhibitor, single point].
With `CC1(C)CC(=O)C=C(c2ccc(Oc3ccccc3)cc2)C1` the Potency was inconclusive: 2.06 µM [activator, partial curve].
In the case of `O=C(Nc1ccncc1)c1cccc(S(=O)(=O)N2CCN(c3ccc(F)cc3)CC2)c1`, the Potency is reported as inconclusive: 16.4 µM [inhibitor, single point].
For `CCCNC(=O)CSc1nc(COc2ccccc2)nc2ccccc12`, the Potency was “inactive”.
With `CSc1ncccc1C(=O)Nc1ccc2c(c1)OCCO2` the Potency was inconclusive: 20.6 µM [activator, partial curve].
With `COc1ccc(NC(=O)CN(C)CC(=O)NCC(=O)Nc2ccc(F)cc2)cc1` the Potency was “inactive”.
In the case of `CC(C)[C@H](NC(=O)[C@@H]1Cc2c([nH]c3ccccc23)C2c3ccccc3C(=O)N21)C(=O)N1CCC[C@@H]1C(=O)O` (some centres not stated), the Potency is reported as inconclusive: 0.0164 µM [inhibitor, full curve, poor fit].
In the case of `N#CC1=C(S)N(c2ccccc2)C(c2ccc(-c3ccccc3Cl)o2)NC1=O` (configuration not stated), the Potency is reported as “inactive”.
For `COc1ccccc1NC(=O)Nc1ccc2c(c1)nnn2C`, the Potency was inconclusive: 23.1 µM [activator, partial curve].
For `Nc1c(Cl)cc2c(c1Oc1ccccc1)C(=O)c1ccccc1C2=O`, the Potency was inconclusive: 2.06 µM [activator, full curve].
For `O=C(CN1C(=O)NC2(CCCC2)C1=O)NCc1ccc(F)cc1`, the Potency was “inactive”.
In the case of `O=C(NC(=S)Nc1nc2ccccc2s1)c1ccco1`, the Potency is reported as inconclusive: 3.26 µM [activator, full curve].
For `NS(=O)(=O)c1ccc(N2N=C(c3ccccc3)CC2c2ccc(F)cc2)cc1` (configuration not stated), the Potency was inconclusive: 29.1 µM [inhibitor, single point].
With `Cc1ccc(C)c(Nc2cc(C)nc(-c3ccccc3O)n2)c1` the Potency was inconclusive: 25.9 µM [inhibitor, single point].
In the case of `CCCCNC(=S)NNC(=O)CCn1nc(C)c(Br)c1C`, the Potency is reported as “inactive”.
With `S=c1[nH]nc(Cc2ccccc2)n1Cc1ccco1` the Potency was inconclusive: 0.184 µM [activator, partial curve, poor fit].
In the case of `O=C1CSC(=O)N1CC(O)COc1ccc(Cl)cc1` (configuration not stated), the Potency is reported as inconclusive: 16.4 µM [activator, partial curve].
For `Cc1[nH]c2ccccc2c1/C=N/NC(=O)c1cccs1`, the Potency was inconclusive: 20.6 µM [activator, partial curve].
In the case of `CCOc1ccccc1N1CCN(C(=O)c2c(-c3ccccc3Cl)noc2C)CC1`, the Potency is reported as inconclusive: 20.6 µM [inhibitor, single point].
In the case of `Oc1ccccc1N1CCN(C(=S)NCCc2ccccc2)CC1`, the Potency is reported as inconclusive: 20.6 µM [activator, partial curve, poor fit].
With `COC(=O)c1ccsc1NS(=O)(=O)c1ccccc1` the Potency was “inactive”.
With `COc1cccc2sc(Nc3nnc(-c4ccccc4Cl)o3)nc12` the Potency was inconclusive: 2.91 µM [inhibitor, partial curve].
In the case of `CC(=O)NCCC(=O)Nc1sc2c(c1-c1nc3ccccc3[nH]1)CCCC2`, the Potency is reported as active: 14.6 µM.
With `CCOc1ccc(S(=O)(=O)Nc2cnc3ccccc3c2)cc1` the Potency was “inactive”.
For `CCOC(=O)N1CCN(C(=S)NC(=O)c2cc(Br)ccc2Cl)CC1`, the Potency was “inactive”.
In the case of `O=C(CNC(=O)c1ccccc1F)N/N=C/c1cc(Br)ccc1OCc1ccccc1`, the Potency is reported as active: 8.2 µM.
In the case of `C(=N\c1ncnc2sccc12)/NOCc1ccccc1`, the Potency is reported as inconclusive: 7.31 µM [inhibitor, partial curve, poor fit].
With `Cc1cccc(/C(N)=N/OC(=O)CCC2CCCCC2)c1` the Potency was inconclusive: 20.6 µM [activator, partial curve].
In the case of `CCCCC(=O)Nc1sc(C(=O)N(CC)CC)c(C)c1C(=O)OC`, the Potency is reported as inconclusive: 29.1 µM [inhibitor, single point].
In the case of `O=C1OCCN1C(=O)[C@H]1[C@H](c2ccc([N+](=O)[O-])cc2)C(c2ccc(F)cc2)=NN1c1ccccc1`, the Potency is reported as inconclusive: 18.3 µM [inhibitor, single point].
With `COc1ccc(N2CCN(C(=O)CNC(=O)Cc3ccc(Cl)cc3)CC2)cc1` the Potency was “inactive”.
For `O=Cc1ccc(-c2nc3ccccc3s2)o1`, the Potency was inconclusive: 11.6 µM [activator, partial curve].
For `COc1ccc(C(=O)Nc2nccs2)cc1OC`, the Potency was inconclusive: 23.1 µM [activator, single point].
In the case of `CC1=Nc2ccccc2N=C(NC(=O)/C=C/C(=O)O)C1c1ccccc1` (configuration not stated), the Potency is reported as inconclusive: 23.1 µM [activator, partial curve].
For `O=C(Cc1ccccc1)NC1CCSc2ccccc21` (configuration not stated), the activity change, negative = inhibition was inconclusive: 34.4% [activator].
In the case of `CN(Cc1ccccc1)C(=O)COc1cccnc1[N+](=O)[O-]`, the Potency is reported as “inactive”.
In the case of `COc1ccc(-c2cc(-c3ccccc3)nc(SCC(=O)Nc3nccs3)c2C#N)cc1`, the Potency is reported as inconclusive: 7.31 µM [inhibitor, single point].
In the case of `O=C(O)c1ccc(-n2ccnc2)c([N+](=O)[O-])c1`, the Potency is reported as “inactive”.
For `CC(C)(C)C(=O)CN1C(=O)C2(OCCO2)c2ccccc21`, the Potency was “inactive”.
In the case of `CC(Sc1ccc(Cl)cc1)C(=O)Nc1ccc(S(=O)(=O)N2CCOCC2)cc1` (configuration not stated), the Potency is reported as “inactive”.
With `Clc1ccc(-c2c[n+]3c(n2-c2ccccc2)SCC3)cc1` the Potency was active: 7.3 µM.
With `Cc1ccccc1CNC(=O)C(=O)NCC1OCCCN1S(=O)(=O)c1cccs1` (configuration not stated) the Potency was inconclusive: 6.51 µM [inhibitor, single point].
For `C/C(=N/NC(=O)CNC(=O)c1ccccn1)c1ccccc1`, the Potency was inconclusive: 20.6 µM [activator, partial curve, poor fit].
